Results are given in words; binding and its absence hold for the method and conditions named. Binding seen in cells or lysates may run through a third protein. Some results given as binding are weak or reduced against the parent protein; the word gives no strength.
Columns and labels:
[1] = molecular target: C. albicans Als3 expressed in S. cerevisiae (C. albicans) (UniProt Q59L12); assay: pull-down; intact organisms as bait: 2×10^8 C. albicans hyphae or 8×10^8 S. cerevisiae yeast incubated on ice for 1 h with 250 µg HBMEC membrane proteins in PBS with calcium and magnesium, 1.5% octyl-glucopyranoside and protease inhibitors; rinsed, bound proteins eluted with 6M urea, immunoblot with anti-gp96 antibody
[2] = molecular target: C. albicans Als3 on hyphae (C. albicans (endogenous in hyphae)) (UniProt Q59L12); assay: as above

The chains behind the UniProt entries cited, without tags or fusion partners. Residues count along the entry.
UniProt Q59L12, residues 18-1134: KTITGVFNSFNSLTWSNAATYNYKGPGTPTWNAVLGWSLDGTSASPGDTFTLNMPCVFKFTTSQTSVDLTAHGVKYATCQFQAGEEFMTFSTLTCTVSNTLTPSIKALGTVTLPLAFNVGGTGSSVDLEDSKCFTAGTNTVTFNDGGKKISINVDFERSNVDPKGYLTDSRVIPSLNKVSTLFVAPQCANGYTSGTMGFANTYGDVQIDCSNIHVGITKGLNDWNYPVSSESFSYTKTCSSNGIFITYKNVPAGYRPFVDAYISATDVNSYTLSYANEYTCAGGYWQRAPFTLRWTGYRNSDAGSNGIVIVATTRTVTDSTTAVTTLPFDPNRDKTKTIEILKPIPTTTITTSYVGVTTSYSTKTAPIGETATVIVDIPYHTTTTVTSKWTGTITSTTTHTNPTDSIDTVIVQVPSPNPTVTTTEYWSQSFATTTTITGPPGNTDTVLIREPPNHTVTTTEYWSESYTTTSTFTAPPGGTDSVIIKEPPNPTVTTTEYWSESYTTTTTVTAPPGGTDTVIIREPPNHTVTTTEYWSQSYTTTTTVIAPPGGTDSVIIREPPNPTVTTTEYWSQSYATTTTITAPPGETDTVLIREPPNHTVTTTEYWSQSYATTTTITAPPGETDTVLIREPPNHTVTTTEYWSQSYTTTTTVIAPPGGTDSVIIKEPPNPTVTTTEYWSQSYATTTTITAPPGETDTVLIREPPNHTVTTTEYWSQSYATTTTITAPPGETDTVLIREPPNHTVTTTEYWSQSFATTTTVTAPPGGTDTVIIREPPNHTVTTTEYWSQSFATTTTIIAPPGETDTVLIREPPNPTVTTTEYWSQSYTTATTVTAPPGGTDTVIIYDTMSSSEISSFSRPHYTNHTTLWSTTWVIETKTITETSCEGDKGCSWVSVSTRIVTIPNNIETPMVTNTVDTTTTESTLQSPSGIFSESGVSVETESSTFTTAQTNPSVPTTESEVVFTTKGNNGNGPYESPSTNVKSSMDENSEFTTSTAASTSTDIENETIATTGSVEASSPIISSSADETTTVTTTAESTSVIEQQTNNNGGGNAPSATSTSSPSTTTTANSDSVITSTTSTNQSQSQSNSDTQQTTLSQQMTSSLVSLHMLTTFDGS
UniProt P14625, residues 22-803: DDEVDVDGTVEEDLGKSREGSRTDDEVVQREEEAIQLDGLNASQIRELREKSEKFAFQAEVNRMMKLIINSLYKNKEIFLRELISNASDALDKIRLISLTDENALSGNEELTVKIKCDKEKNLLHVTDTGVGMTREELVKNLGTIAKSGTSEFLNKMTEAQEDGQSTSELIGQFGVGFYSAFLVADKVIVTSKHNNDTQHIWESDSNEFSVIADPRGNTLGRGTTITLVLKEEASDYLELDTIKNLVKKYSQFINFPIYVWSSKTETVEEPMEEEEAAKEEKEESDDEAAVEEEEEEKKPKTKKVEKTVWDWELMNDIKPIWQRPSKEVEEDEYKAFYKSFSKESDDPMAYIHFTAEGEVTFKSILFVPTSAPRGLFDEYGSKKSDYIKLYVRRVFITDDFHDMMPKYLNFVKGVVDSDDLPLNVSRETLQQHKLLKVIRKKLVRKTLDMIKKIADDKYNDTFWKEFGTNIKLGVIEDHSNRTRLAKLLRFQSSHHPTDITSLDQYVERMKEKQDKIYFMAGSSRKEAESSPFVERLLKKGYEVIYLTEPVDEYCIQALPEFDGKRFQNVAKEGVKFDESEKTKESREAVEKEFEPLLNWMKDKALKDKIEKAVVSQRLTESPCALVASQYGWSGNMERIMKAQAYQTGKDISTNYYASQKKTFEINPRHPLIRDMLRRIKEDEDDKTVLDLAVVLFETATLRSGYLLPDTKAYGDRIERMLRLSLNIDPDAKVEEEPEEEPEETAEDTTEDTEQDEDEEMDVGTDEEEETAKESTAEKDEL

In the case of “gp96 heat shock protein (from UniProt P14625 22-803) (receptor)”, the binding [1] is reported as “binds” and the binding [2] is reported as “binds”.

Reference: publication PMC3188548
